PubChem BioAssay AID1259254 | NCATS, 2017
The whole screen tested about 59,000 reagents; shown is a random part of them. About 1,550 of all reagents (2.6%) count as active. 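G2 share is only a proxy for re-replication; each gene was hit by three separate siRNAs, and active genes were retested.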 The raw values are shown without normalisation. Unmarked entries are inactive. The numbers tell different reagents against one gene apart. Not given: the amount of reagent.

Screen: 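Genome-wide screen for genes that prevent DNA re-replication in cancer cells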 (primary screen)
Cells: human HCT116 colorectal cancer cells
Reagents: single siRNA against human genes
Time to read-out: 3 days
Measurement: 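Imaged Hoechst DNA stain sorts each cell into a cycle phase by DNA amount; per plate, G2 fraction set to 0% for non-targeting and 100% for GMNN siRNA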
Reading the numbers: G2 robust z-score and G2 cells, % of GMNN control: higher = more G2 cells, more excess DNA replication; raw share of cells in G2: higher = larger share of cells with G2 DNA content
Hit rule: 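Active siRNAs have a G2 robust z of 5 or more median absolute deviations over the median, which in these data means about 38% or higher of GMNN control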

target	reagent	G2 robust z-score	G2 cells, % of GMNN control	raw share of cells in G2 (%)
MEFV	1	-0.603	-1.27	4.87
MEFV	2	-0.371	0.355	3.31
MEFV	3	1.35	12.4	10.4
SEC62	1	0.406	5.83	7.72
SEC62	2	2.25	18.8	11.4
SEC62	3	1.61	14.3	8.41
CBFA2T3	1	-0.573	-1.06	3.04
CBFA2T3	2	-0.748	-2.29	3.77
CBFA2T3	3	0.396	5.76	5.2
PAFAH1B1	1	1.48	13.4	10.2
PAFAH1B1	2	-0.741	-2.25	2.43
PAFAH1B1	3	2.17	18.2	12.1
SCAMP3	1	1.71	15	12.1
SCAMP3	2	3.23	25.7	14.7
SCAMP3	3	1.33	12.4	7.9
LMTK2	1	0.124	3.84	6.78
LMTK2	2	-0.608	-1.31	4.71
LMTK2	3	0.0846	3.56	4.82
SPOCD1	1	0.51	6.56	6.87
SPOCD1	2	-0.828	-2.86	2.1
SPOCD1	3	1.17	11.2	6.48
MIR3945HG	1	0.157	4.07	5.03
MIR3945HG	2	0.00219	2.98	4.84
MIR3945HG	3	0.025	3.14	4.79
LOC729973	1	-0.351	0.499	4.29
LOC729973	2	0.862	9.03	6.27
LOC729973	3	-0.999	-4.06	1.69
COPS9	1	-0.0131	2.88	4.79
COPS9	2	1.41	12.9	6.9
COPS9	3	0.731	8.11	5.9
ZNF512B	1	0.569	6.97	5.25
ZNF512B	2	2.16	18.2	14.1
ZNF512B	3	-0.189	1.64	4.15
ZC3H13	1	-1.09	-4.72	3.14
ZC3H13	2	-0.251	1.2	4.63
ZC3H13	3	-0.128	2.07	3.95
TSPAN8	1	0.225	4.55	7.15
TSPAN8	2	-0.1	2.26	4.79
TSPAN8	3	0.711	7.97	6.17
M1AP	1	-0.142	1.97	4.92
M1AP	2	1.99	17	8.49
M1AP	3	-0.541	-0.837	2.28
GDPD2	1	-1.1	-4.77	1.97
GDPD2	2	2.71	22	16
GDPD2	3	-0.529	-0.758	3.96
KDR	1	-0.375	0.331	5.72
KDR	2	1.11	10.8	9.05
KDR	3	0.00833	3.03	5.09
NUDT7	1	0.311	5.16	6.12
NUDT7	2	0.698	7.88	5.88
NUDT7	3	-0.399	0.16	3.23
SH3YL1	1	3.65	28.7	14.8
SH3YL1	2	0.811	8.67	7.83
SH3YL1	3	0.335	5.32	4.93
TRHR	1	-1.25	-5.8	3.77
TRHR	2	0.0867	3.58	5.77
TRHR	3	-0.109	2.2	3.94
PCDHA5	1	0.48	6.34	6.98
PCDHA5	2	-0.562	-0.985	6
PCDHA5	3	-0.134	2.03	5.17
OXT	1	-0.948	-3.7	1.94
OXT	2	-0.755	-2.34	4.32
OXT	3	-0.146	1.94	5.54
GCNT4	1	3.92	30.5	19.8
GCNT4	2	-0.954	-3.74	2.86
GCNT4	3	0.567	6.95	6.47
SMR3B	1	0.387	5.69	7.22
SMR3B	2	2.66	21.7	13.1
SMR3B	3	-1.12	-4.94	1.33

10 entries from above, reformatted.
target | reagent | G2 robust z-score | G2 cells, % of GMNN control | raw share of cells in G2 (%)
PAFAH1B1 | 2 | -0.741 | -2.25 | 2.43
PAFAH1B1 | 3 | 2.17 | 18.2 | 12.1
SCAMP3 | 1 | 1.71 | 15 | 12.1
SCAMP3 | 2 | 3.23 | 25.7 | 14.7
SCAMP3 | 3 | 1.33 | 12.4 | 7.9
LMTK2 | 1 | 0.124 | 3.84 | 6.78
LMTK2 | 2 | -0.608 | -1.31 | 4.71
LMTK2 | 3 | 0.0846 | 3.56 | 4.82
SPOCD1 | 1 | 0.51 | 6.56 | 6.87
SPOCD1 | 2 | -0.828 | -2.86 | 2.1
